Patent publication US20040043498A1, “Reagent for determining singlet oxygen” (priority 2003, published 2004)

Test: Measurement of singlet oxygen generated by naphthalene endoperoxide EP-1 (fluorescence)
Conditions: EP-1 increased from 0.1 mM to 0.5 mM and to 1.0 mM; 100 mM phosphate buffer pH 7.4, 0.1% DMSO, 37° C.

With `Cc1c2ccccc2c(C)c2cc(-c3c4ccc(=O)cc-4oc4cc(O)ccc34)c(C(=O)O)cc12` [DMAX] the “Increase of fluorescence intensity” value was “dependent on the generated amount of singlet oxygen”.
